Data reported in PubChem BioAssay AID1347075 (National Center for Advancing Translational Sciences (NCATS), 2019).
Hit rate of the full screen: of about 400,000 compounds, about 5,500 (1.4%) were called active. This list was built around the results that the source calls inconclusive (neither active nor inactive); the mix of calls is not that of the screen. Calls come from the whole dose curve; as a rule, active = well fitted cell-killing curve with a large enough effect; inconclusive = small, poorly fitted or top-dose-only effect, or effect the other way; inactive = flat fitted curve, though single readings scatter. Where the call is inconclusive, the potency comes from a doubtful curve fit.

test: qHTS assay for MDR1-selective chemotherapeutics: Primary screen using the parental adenocarcinoma cell KB-3-1; conditions: KB-3-1 viability, CellTiter-Glo ATP luminescence, 72 h; activity change, negative = cytotoxic: at 46.1 µM (top of the series); note: nearly all actives have a fitted effect of over 60% in size
Procedure, shortened: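 Luminescent ATP read-out (CellTiter-Glo) measures survival of drug-naive KB-3-1 cells after 72 h compound exposure at 37 °C. Titration series was screened from lowest to highest concentration, with DMSO vehicle plates as background controls.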
% is set by controls: 0 for no effect and ±100 for the full control effect; potency is the fitted concentration of half-maximal effect.

SMILES | Potency | activity change, negative = cytotoxic
Cc1ccc(CSc2nc3ccccc3cc2C=O)cc1 | active: 8.2 µM | 
CC(C)c1ccc(NC(=S)NN2CCN(C)CC2)cc1 |  | inconclusive: -7.32%
O=S(=O)(NC1CCCC1)c1cccc(-c2nnc(-c3ccccc3)o2)c1 | inconclusive: 14.6 µM [cytotoxic, partial curve] | 
O=[N+]([O-])c1ccc2c(c1)C(=NO)c1cc(Cl)c(Cl)cc1-2 | inconclusive: 29.1 µM [cytotoxic, single point] | 
COc1ccccc1Nc1nc2ccc(Cl)cc2nc1-n1nc(C)cc1C | inactive | 
CCn1c(=O)c(C(=O)Nc2ncccc2C)c(O)c2ccccc21 | inconclusive: 29.1 µM [cytotoxic, single point] | 
CC(Nc1nc(-c2cccc(Br)c2)cs1)c1nc2cc(Cl)c(N3CCCCC3)cc2n1CCOCCO (stereo not given) | inconclusive: 29.1 µM [cytotoxic, single point] | 
COc1ccc(CN2CCN(C(=O)c3ccc(S(=O)(=O)NCc4ccco4)cc3)CC2)cc1 | inconclusive: 7.31 µM [cytotoxic, partial curve, poor fit] | 
CCCc1c(NC(=O)Nc2ccc(Cl)cc2Cl)cnn1-c1ccccc1 | inconclusive: 23.1 µM [cytotoxic, partial curve, poor fit] | 
CCOC(=O)c1ccc(NC(=O)CC2C(=O)N(c3ccc(F)cc3)C(=O)N2Cc2ccc3c(c2)OCO3)cc1 (stereo not given) | inconclusive: 29.1 µM [cytotoxic, single point] | 
O=C(CSc1ccc(-c2ccc(F)cc2)nn1)N1CCCCC1 | inactive | 
O=c1c2ccccc2sn1-c1ccccc1 | inconclusive: 29.1 µM [cytotoxic, single point] | 
O=S(=O)(c1ccc(Cl)cc1)N1CCN=C1SCc1cccc(Cl)c1 | inactive | 
O=C(c1cc(-c2ccccc2Cl)nc2ccc(Br)cc12)N1CCN(c2ccccn2)CC1 | inconclusive: 29.1 µM [cytotoxic, partial curve, poor fit] | 
Cc1nc2nc[nH]n2c(=O)c1CCOC(=O)c1ccccc1F |  | inconclusive: -1.02%
Cc1ccc(S(=O)(=O)NCC2NCCc3ccccc32)cc1 (stereo not given) | inactive | 
O=C(c1cccnc1)N1CCC2CC1c1c(Cl)cccc12 (stereo not given) | inactive | 
O=C(c1ccco1)N1CCN(C(=O)c2cn(-c3ccccc3)nc2-c2ccc(F)cc2)CC1 | inactive | 
O=C(Nc1ccc2c(c1)OCO2)C1CCN(Cc2cnn(-c3ccccc3)c2-n2cccc2)CC1 | inconclusive: 29.1 µM [cytotoxic, single point] | 
O=C(CCN1CCCCC1)c1ccc2c(c1)OCO2 | inconclusive: 20.6 µM [cytotoxic, single point] | 
CCC(C)NCC(=O)Nc1cc(S(=O)(=O)N(CC)c2ccccc2)ccc1Cl (stereo not given) | inconclusive: 25.9 µM [cytotoxic, single point] | 
Nc1ccc2c(c1)Cc1cc([N+](=O)[O-])ccc1-2 | inactive | 
O=C(CCS(=O)(=O)c1ccc(Cl)cc1)Nc1nc(-c2cccnc2)cs1 | inconclusive: 10.3 µM [cytotoxic, partial curve, poor fit] | 
CN(C)N=C1c2cc(S(=O)(=O)N(C)C)ccc2-c2ccc(S(=O)(=O)N(C)C)cc21 | inactive | 

SMILES | Potency | activity change, negative = cytotoxic
COc1ccc(/C=N/OC(=O)Nc2ccccc2OC)cc1 | active: 10.3 µM | 
CN1CCN(C(=O)CCN2C(=O)/C(=C\c3ccccc3F)SC2=S)CC1 | inconclusive: 29.1 µM [cytotoxic, single point] | 
COc1cccc(CNC(=O)Cn2ccc3cc(S(=O)(=O)N4CCCCCC4)ccc32)c1 | inconclusive: 20.6 µM [cytotoxic, single point] | 
COc1ccc(-c2cc(C(F)(F)F)n3nc(C(=O)Nc4cccc(Cl)c4C)cc3n2)cc1 | inconclusive: 14.6 µM [rising, partial curve] | 
COc1ccc(-n2nc3c(N4CCCC(C(=O)NCCc5ccc(C)cc5)C4)nnc(C)c3c2C)cc1 (stereo not given) | inconclusive: 29.1 µM [cytotoxic, single point] | 
O=C1NC(=S)SC1=Cc1ccccc1Br | inconclusive: 29.1 µM [cytotoxic, single point] | 
COc1cccc(CN2CCc3nc(SCC(=O)Nc4ccccc4)[nH]c(=O)c3C2)c1 | inconclusive: 11.6 µM [rising, partial curve, poor fit] | 
Cc1ccc(C)c(NC(=O)COc2coc(CN3CCc4ccccc43)cc2=O)c1 | inactive | 
Cc1cccc(NC(=O)c2ccc(COc3ccccc3[N+](=O)[O-])o2)n1 | inconclusive: 29.1 µM [cytotoxic, single point] | 
O=C1NC[C@@H](CCCCN2C[C@H](Cc3ccccc3)N(CC3CCCCC3)C(=O)C2=O)N(CCc2ccc(O)cc2)C1=O | inactive | 
O=C1C=CCC(/C=C/c2ccccc2)O1 (stereo not given) | inconclusive: 29.1 µM [cytotoxic, single point] | 
CC1CN(c2nc3c(c(=O)n(Cc4ccc(Cl)c(Cl)c4)c(=O)n3C)n2C)CC(C)O1 (stereo not given) | inconclusive: 20.6 µM [cytotoxic, single point] | 
CN(C)c1ccc(C=Cc2ccnc3ccccc23)cc1N | inconclusive: 29.1 µM [cytotoxic, single point] | 
OC(COCC(F)(F)C(F)(F)C(F)(F)C(F)F)Cn1c2ccccc2c2ccccc21 (stereo not given) | inconclusive: 23.1 µM [cytotoxic, single point] | 
CCc1ccc(-c2nc(CS(=O)CC(=O)NCCN3CCCCCC3)c(C)o2)cc1 (stereo not given) | inconclusive: 23.1 µM [cytotoxic, partial curve, poor fit] | 
N=c1c2c(ncn1Cc1ccco1)Oc1ccc3ccccc3c1C2c1ccccc1 (stereo not given) | inconclusive: 18.4 µM [cytotoxic, single point] | 
COc1cc(OC)cc(-c2ncc3ccccn23)c1 | active: 20.6 µM | 
CCN(CC)c1ccc(/C=C/c2ccncc2)cc1 | active: 0.517 µM | 
Cc1cccc(C(=O)N2CCC(=O)N(C(COCc3ccc(Cl)cc3)Cc3ccccc3)CC2)c1 (stereo not given) | inconclusive: 29.1 µM [cytotoxic, single point] | 
CC1Cc2cc(S(=O)(=O)NCc3ccccc3Cl)ccc2N1C(=O)C1CCC1 (stereo not given) | active: 23.1 µM | 
COc1ccc2[nH]c(=O)c(CNc3cccc(C)c3)cc2c1 | inconclusive: 23.1 µM [cytotoxic, single point] | 
Cn1c(-c2ccccc2)c(CCO)c2ccccc21 | inconclusive: 20.6 µM [cytotoxic, partial curve, poor fit] | 
C=CCOc1ccc2nc(NC(=O)OC)[nH]c2c1 | active: 0.651 µM | 
CCOC(=O)Cn1nnnc1CN(Cc1ccccc1)Cc1cc2cc(CC)ccc2[nH]c1=O | inactive | 

SMILES | Potency | activity change, negative = cytotoxic
S=c1[nH]cnc2sc(-c3ccccc3)cc12 | inconclusive: 16.4 µM [cytotoxic, partial curve, poor fit] | 
Cc1ccccc1NS(=O)(=O)c1nnc(NC(=O)c2ccccc2C)s1 | inactive | 
COCCn1c(=O)[nH]c2cc(C(=O)NCCN3CCN(c4ccccc4)CC3)ccc2c1=O | inactive | 
O=C(CN(C(=O)c1ccc(Cl)cc1)C1CCCCC1)Nc1ccc(Cl)c([N+](=O)[O-])c1 | inactive | 
CC(NC(=O)Nc1cc(Cl)ccc1Cl)c1c(-n2cccc2)sc2c1CCCC2 (stereo not given) | inactive | 
C[C@H](O)C#Cc1ccc2c(c1)O[C@@H](CN(C)C(=O)c1ccncc1)[C@@H](C)CN([C@H](C)CO)S2(=O)=O | inactive | 
Cc1cc(NC(=O)/C=C/c2ccc(F)cc2)n(-c2nc3ccccc3[nH]2)n1 | inactive | 
O=C(CSc1nc2ccc([N+](=O)[O-])cc2[nH]1)NC1CCCCCC1 | inconclusive: 29.1 µM [cytotoxic, single point] | 
COc1ccc(OC)c(-c2nnc(NC(=O)C(C)Sc3nncn3C)s2)c1 (stereo not given) | inactive | 
Cn1nc(SCc2ccccc2)c(=O)n(C(c2ccccc2)c2ccccc2)c1=O | inconclusive: 29.1 µM [cytotoxic, single point] | 
CCCCCCc1cc2cc(S(=O)(=O)c3ccc(Cl)cc3)c(=O)oc2cc1O | inconclusive: 29.1 µM [cytotoxic, single point] | 
COc1ccc(CCNC(=O)c2cc3c(=O)n4ccccc4nc3n(C3CCCCC3)c2=N)cc1 | inactive | 
O=C(Nc1cc(N2CCOCC2)ncn1)c1ccc(F)cc1 | active: 16.4 µM | 
CC(c1nc2ccccc2[nH]1)n1c(=O)c(-c2cccnc2)nc2ccccc21 (stereo not given) | inconclusive: 23.1 µM [rising, partial curve, poor fit] | 
NC(=O)c1ccc(SCC(=O)OCC(=O)NC2CCCCCCC2)c([N+](=O)[O-])c1 | inconclusive: 11.6 µM [rising, partial curve] | 
CCCCCCCCN1C(=O)[C@H](CC(=O)NCc2ccc(C)o2)C[C@@]2(C(=O)OC)CC(C)(C)CC=C12 | inconclusive: 29.1 µM [cytotoxic, single point] | 
OCCCN=C1CCCc2c1[nH]c1ccc(Cl)cc21 | active: 9.2 µM | 
Cc1ccc(CNC(=O)c2ccc(-n3cnc4cccnc43)cc2)cc1 | inactive | 
COc1ccc(-c2sc3cc(OC)ccc3c2-c2ccc(OCCN3CCCCC3)cc2)cc1 | inconclusive: 29.1 µM [cytotoxic, single point] | 
CCOC(Cn1c(-c2ccc(OC)cc2)nc2ccccc21)OCC | inactive | 
COc1cccc(COc2ccccc2C2Nc3ccc(Br)cc3C(=O)N2NC(=O)c2ccncc2)c1 (stereo not given) | inconclusive: 20.6 µM [cytotoxic, single point] | 
CCOC(=O)c1sc(C)nc1C1CCN(C(=O)OCC)CC1 | inconclusive: 3.66 µM [rising, partial curve] | 
